PubChem BioAssay AID1671195 – Yale University | 2021

Screen: 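Genes whose knockdown alters LDL uptake in liver cancer cells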 (primary screen)
System: human Huh7 hepatoma cells
Knock-down reagent: siRNA pool against human genes, 18 nM
Duration: about 2 to 2.5 days of knockdown, then 8 h LDL uptake
Treatment: DiI-labelled LDL at 30 µg/ml for 8 h, in lipoprotein-deficient serum medium
Detection: 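Per-cell DiI-LDL intensity by automated imaging; well means scaled to the plate median and given as a robust z-score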
Scale: robust z-score: higher = more LDL uptake after knockdown
Active means: 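a gene counts as active if at least two replicate z-scores exceed ±2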
In all, the deposit lists about 22,000 reagents; below is a part drawn at random. In the full data, about 1,510 (6.9%) are marked active. 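Active includes knockdowns raising or lowering LDL uptake; positive z-scores mean more uptake, negative mean less.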 Entries without a mark were called inactive. The numbers tell different reagents against one gene apart. No sequences are given here.

| gene | pool no. | robust z-score, replicate 1 | robust z-score, replicate 2 | robust z-score, replicate 3 |
| --- | --- | --- | --- | --- |
| ZNF121 | 1 | -0.085 | -0.286 | -0.183 |
| NSD3 | 1 | -1.72 | -0.571 | -0.661 |
| CYB561 | 1 | -0.481 | -0.343 | -1.05 |
| SNAP29 | 1 | 0.0988 | -1.27 | -0.946 |
| LOC440940 (retired record) | 1 | 0.923 | 1.85 | 1.84 |
| OTULIN | 1 | -0.0537 | 0.608 | 0.64 |
| LOC441128 (retired record) | 1 | -0.0693 | -0.535 | -0.37 |
| KCNA2 | 1 | -0.207 | -0.15 | -0.525 |
| PYM1 | 1 | 0.153 | 0.467 | 0.789 |
| ZEB1 | 1 | 1.11 | 0.363 | 0.214 |
| ZNF592 | 1 | -0.309 | -0.457 | -0.458 |
| MARCHF4 | 1 | -1.14 | 0.405 | -0.434 |
| CLDN4 | 1 | 0.485 | 0.448 | 0.21 |
| LAIR2 | 1 | -1.75 | -2.62 | -1.73 |
| ANGPTL8 | 1 | 1.59 | 0.5 | 1.57 |
| HNRNPABP1 | 1 | -1.4 | -1.43 | -1.75 |
| SDF2L1 | 1 | -1.43 | -1.57 | -0.504 |
| ORAI3 | 1 | 0.119 | 0.0758 | 0.181 |
| SPDL1 | 1 | -0.412 | -0.882 | 0.305 |
| C8orf44 | 1 | -0.974 | 0.807 | -1.46 |
| FIBCD1 | 1 | 2.3 (active) | 1.94 | 1.51 |
| CSTF1 | 1 | -0.19 | -0.0258 | -0.527 |
| LOC387894 (retired record) | 1 | -0.209 | -0.596 | -0.409 |
| IGSF9B | 1 | 1.79 | 1.9 | 1.11 |
| IGSF9B | 2 | 2.15 | 0.952 | 1.56 |
| EWSAT1 | 1 | 0.473 | 0.383 | 0.08 |
| RPL22 | 1 | -0.434 | 1.65 | -0.959 |
| KRT36 | 1 | -0.261 | -0.871 | -1.02 |
| TOX2 | 1 | -0.0396 | -0.238 | 0.226 |
| LOC401915 (retired record) | 1 | -0.607 | -0.361 | 0.234 |
| ZDHHC18 | 1 | -0.0906 | -0.386 | -0.308 |
| PPP3R2 | 1 | 0.0194 | -1.03 | 0.0518 |
| LGALS1 | 1 | 2.4 (active) | 2.66 | 1.64 |
| CLTA | 1 | -0.17 | -0.533 | -1.28 |
| EFCAB3 | 1 | 0.871 | 0.95 | -0.104 |
| LAP3P2 | 1 | -1.31 | -1.79 | -1.37 |
| H2BC8 | 1 | 2.16 | 0.0697 | 1.13 |
| CARS1 | 1 | 0.571 | -0.139 | -0.299 |
| PSMD3 | 1 | 1.1 | 1.88 | 1.04 |
| TINF2 | 1 | -0.443 | -0.872 | -0.637 |
| DMD | 1 | 0.179 | 3.93 | 0.352 |
| IL9 | 1 | -0.471 | -0.215 | -0.539 |
| TOR1B | 1 | 0.921 | 1.37 | -0.626 |
| DPYSL5 | 1 | -0.00151 | -0.74 | -0.0878 |
| TM4SF1 | 1 | 0.23 | 1.28 | 0.472 |
| SHANK1 | 1 | 0.446 | -1.52 | 0.518 |
| FAM199X | 1 | -0.595 | 0.345 | 0.423 |
| ALDH8A1 | 1 | -0.89 | -0.975 | -0.989 |
| SLC16A10 | 1 | -0.227 | -0.0589 | -0.456 |
| VTA1 | 1 | 0.627 | -0.689 | -0.291 |
| ADAM28 | 1 | 0.23 | -0.101 | 0.538 |
| OR2M5 | 1 | -0.97 | -0.983 | -1.71 |
| NFKBIA | 1 | 2.41 (active) | 1.97 | 3.04 |
| NGFR | 1 | 0.6 | 1.17 | 0.852 |
| GPR75 | 1 | -1.34 | -0.926 | -0.508 |
| LINC01721 | 1 | 0.362 | 0.0295 | -0.0399 |
| GPR21 | 1 | -1.15 | -1.33 | -1.02 |
| SCN3B | 1 | 2.18 (active) | 1.67 | 2.05 |
| MINDY4 | 1 | -0.842 | -0.66 | -0.00105 |
| SLC29A1 | 1 | 0.456 | -0.139 | 0.861 |
| XCL1 | 1 | 2.13 | -0.266 | 0.519 |
| APOBR | 1 | 1.08 | 0.311 | 1 |
| ZCCHC10 | 1 | 1.42 | 0.782 | 2.18 |
| LOC441260 (retired record) | 1 | -0.0777 | -0.169 | -0.37 |
| YWHAEP7 | 1 | 1.47 | 1.18 | 1.14 |
| OR7G1 | 1 | -0.441 | -0.9 | -1.28 |
| VAPA | 1 | -1.88 | -1.51 | -1.85 |
| LOC441789 (retired record) | 1 | 1.59 (active) | 2.15 | 2.66 |
| TPO | 1 | -0.915 | -0.958 | -1.2 |
| CD69 | 1 | 0.0326 | 0.361 | -0.183 |
| ARR3 | 1 | -0.434 | -0.0464 | -0.419 |
| CHAF1A | 1 | -0.757 | -1.76 | -1.31 |
| KHK | 1 | 1.04 | 1.14 | 1.97 |
| H1-4 | 1 | 0.207 | -0.0443 | 0.222 |
| DND1 | 1 | -1.55 | -1.22 | -0.963 |
| GUCY1A2 | 1 | 1.73 | 0.293 | 0.806 |
| HSPA1B | 1 | 0.204 | -0.0857 | -0.529 |
| MGMT | 1 | 1.12 | 0.591 | 1.06 |
| XPNPEP2 | 1 | -1.06 | -1.29 | -1.22 |
| ESYT2 | 1 | 2.66 (active) | 1.57 | 1.97 |
| RASSF1 | 1 | 1.01 | 1.15 | 0.819 |
| TTC21A | 1 | 0.41 | 0.627 | 0.203 |
| KLHL41 | 1 | -0.405 | -0.0263 | -0.000182 |
| RITA1 | 1 | -0.253 | -0.994 | -0.456 |
| LOC442074 (retired record) | 1 | -1.21 | -1.16 | -1.17 |
| LOC340893 (retired record) | 1 | -0.582 | -0.598 | -0.231 |
| LYZL6 | 1 | -1.07 | -1.01 | 1.37 |

Only “robust z-score, replicate 2”, for 12 of the entries above:
EFCAB3	0.95
LAP3P2	-1.79
H2BC8	0.0697
CARS1	-0.139
PSMD3	1.88
TINF2	-0.872
DMD	3.93
IL9	-0.215
TOR1B	1.37
DPYSL5	-0.74
TM4SF1	1.28
SHANK1	-1.52
